From paper doi:10.1101/756429 come the findings set out here.

These are yes or no findings as the source states them, for the method shown. Binding seen in cells or lysates may run through a third protein. Binding can be weak; no strength is given.

In the assay the target is ArdC mutant protein E229A (plasmid R388). Put plainly: pull-down.

B1: PP_0941 (protein, UniProt Q88PA9 1-173)
chain: MVDSNDDAFDGEKSKTQIKRELHALVELGERLTTLKADTLARLPLTDELRKALAEASKHTAHGARKRHMSFVGKLMRVQDLDAIHALLEQMDSSTRQYNERFHSLERWRDRLIDGNDEDLERFVNEYPDTDRQQLRSLVRHAQHEKARNKPPAAARKVFKYIRDLDELQRGLR
Turning to B1, the binding result is “binds”.
